We go through nine molecules from patent US20250283871A1, “COMPOSITIONS AND METHODS FOR MODULATING THE INTERACTION BETWEEN SS18-SSX FUSION ONCOPROTEIN AND NUCLEOSOMES” (Dana-Farber Cancer Institute, Inc., priority 2020, published 2025).

The labels stand for the following.
B1: PHC1 (protein, UniProt P78364 1-1004, looked up)
Polyhomeotic-like protein 1: METESEQNSNSTNGSSSSGGSSRPQIAQMSLYERQAVQALQALQRQPNAAQYFHQFMLQQQLSNAQLHSLAAVQQATIAASRQASSPNTSTTQQQTTTTQASINLATTSAAQLISRSQSVSSPSATTLTQSVLLGNTTSPPLNQSQAQMYLRPQLGNLLQVNRTLGRNVPLASQLILMPNGAVAAVQQEVPSAQSPGVHADADQVQNLAVRNQQASAQGPQMQGSTQKAIPPGASPVSSLSQASSQALAVAQASSGATNQSLNLSQAGGGSGNSIPGSMGPGGGGQAHGGLGQLPSSGMGGGSCPRKGTGVVQPLPAAQTVTVSQGSQTEAESAAAKKAEADGSGQQNVGMNLTRTATPAPSQTLISSATYTQIQPHSLIQQQQQIHLQQKQVVIQQQIAIHHQQQFQHRQSQLLHTATHLQLAQQQQQQQQQQQQQQQPQATTLTAPQPPQVPPTQQVPPSQSQQQAQTLVVQPMLQSSPLSLPPDAAPKPPIPIQSKPPVAPIKPPQLGAAKMSAAQQPPPHIPVQVVGTRQPGTAQAQALGLAQLAAAVPTSRGMPGTVQSGQAHLASSPPSSQAPGALQECPPTLAPGMTLAPVQGTAHVVKGGATTSSPVVAQVPAAFYMQSVHLPGKPQTLAVKRKADSEEERDDVSTLGSMLPAKASPVAESPKVMDEKSSLGEKAESVANVNANTPSSELVALTPAPSVPPPTLAMVSRQMGDSKPPQAIVKPQILTHIIEGFVIQEGAEPFPVGCSQLLKESEKPLQTGLPTGLTENQSGGPLGVDSPSAELDKKANLLKCEYCGKYAPAEQFRGSKRFCSMTCAKRYNVSCSHQFRLKRKKMKEFQEANYARVRRRGPRRSSSDIARAKIQGKCHRGQEDSSRGSDNSSYDEALSPTSPGPLSVRAGHGERDLGNPNTAPPTPELHGINPVFLSSNPSRWSVEEVYEFIASLQGCQEIAEEFRSQEIDGQALLLLKEEHLMSAMNIKLGPALKICAKINVLKET
B2: VDAC3 (protein, UniProt Q9Y277 2-283, looked up)
Non-selective voltage-gated …: CNTPTYCDLGKAAKDVFNKGYGFGMVKIDLKTKSCSGVEFSTSGHAYTDTGKASGNLETKYKVCNYGLTFTQKWNTDNTLGTEISWENKLAEGLKLTLDTIFVPNTGKKSGKLKASYKRDCFSVGSNVDIDFSGPTIYGWAVLAFEGWLAGYQMSFDTAKSKLSQNNFALGYKAADFQLHTHVNDGTEFGGSIYQKVNEKIETSINLAWTAGSNNTRFGIAAKYMLDCRTSLSAKVNNASLIGLGYTQTLRPGVKLTLSALIDGKNFSAGGHKVGLGFELEA
B3: SF3A1 (protein, UniProt Q15459 2-793, looked up)
Splicing factor 3A subunit 1: PAGPVQAVPPPPPVPTEPKQPTEEEASSKEDSAPSKPVVGIIYPPPEVRNIVDKTASFVARNGPEFEARIRQNEINNPKFNFLNPNDPYHAYYRHKVSEFKEGKAQEPSAAIPKVMQQQQQTTQQQLPQKVQAQVIQETIVPKEPPPEFEFIADPPSISAFDLDVVKLTAQFVARNGRQFLTQLMQKEQRNYQFDFLRPQHSLFNYFTKLVEQYTKILIPPKGLFSKLKKEAENPREVLDQVCYRVEWAKFQERERKKEEEEKEKERVAYAQIDWHDFVVVETVDFQPNEQGNFPPPTTPEELGARILIQERYEKFGESEEVEMEVESDEEDDKQEKAEEPPSQLDQDTQVQDMDEGSDDEEEGQKVPPPPETPMPPPLPPTPDQVIVRKDYDPKASKPLPPAPAPDEYLVSPITGEKIPASKMQEHMRIGLLDPRWLEQRDRSIREKQSDDEVYAPGLDIESSLKQLAERRTDIFGVEETAIGKKIGEEEIQKPEEKVTWDGHSGSMARTQQAAQANITLQEQIEAIHKAKGLVPEDDTKEKIGPSKPNEIPQQPPPPSSATNIPSSAPPITSVPRPPTMPPPVRTTVVSAVPVMPRPPMASVVRLPPGSVIAPMPPIIHAPRINVVPMPPSAPPIMAPRPPPMIVPTAFVPAPPVAPVPAPAPMPPVHPPPPMEDEPTSKKLKTEDSLMPEEEFLRRNKGPVSIKVQVPNMQDKTEWKLNGQVLVFTLPLTDQVSVIKVKIHEATGMPAGKQKLQYEGIFIKDSNSLAYYNMANGAVIHLALKERGGRKK
B4: DDX3Y (protein, UniProt O15523 2-660, looked up)
ATP-dependent RNA helicase …: SHVVVKNDPELDQQLANLDLNSEKQSGGASTASKGRYIPPHLRNREASKGFHDKDSSGWSCSKDKDAYSSFGSRDSRGKPGYFSERGSGSRGRFDDRGRSDYDGIGNRERPGFGRFERSGHSRWCDKSVEDDWSKPLPPSERLEQELFSGGNTGINFEKYDDIPVEATGSNCPPHIENFSDIDMGEIIMGNIELTRYTRPTPVQKHAIPIIKGKRDLMACAQTGSGKTAAFLLPILSQIYTDGPGEALKAVKENGRYGRRKQYPISLVLAPTRELAVQIYEEARKFSYRSRVRPCVVYGGADIGQQIRDLERGCHLLVATPGRLVDMMERGKIGLDFCKYLVLDEADRMLDMGFEPQIRRIVEQDTMPPKGVRHTMMFSATFPKEIQMLARDFLDEYIFLAVGRVGSTSENITQKVVWVEDLDKRSFLLDILGATGSDSLTLVFVETKKGADSLEDFLYHEGYACTSIHGDRSQRDREEALHQFRSGKSPILVATAVAARGLDISNVRHVINFDLPSDIEEYVHRIGRTGRVGNLGLATSFFNEKNMNITKDLLDLLVEAKQEVPSWLENMAYEHHYKGGSRGRSKSNRFSGGFGARDYRQSSGSSSSGFGASRGSSSRSGGGGYGNSRGFGGGGYGGFYNSDGYGGNYNSQGVDWWGN
B5: TOMM22 (protein, UniProt Q9NS69 2-142, looked up)
Mitochondrial import receptor …: AAAVAAAGAGEPQSPDELLPKGDAEKPEEELEEDDDEELDETLSERLWGLTEMFPERVRSAAGATFDLSLFVAQKMYRFSRAALWIGTTSFMILVLPVVFETEKLQMEQQQQLQQRQILLGPNTGLSGGMPGALPSLPGKI
B6: ATP5A1 (protein, UniProt P25705 44-553, looked up)
ATP synthase F(1) complex …: QKTGTAEMSSILEERILGADTSVDLEETGRVLSIGDGIARVHGLRNVQAEEMVEFSSGLKGMSLNLEPDNVGVVVFGNDKLIKEGDIVKRTGAIVDVPVGEELLGRVVDALGNAIDGKGPIGSKTRRRVGLKAPGIIPRISVREPMQTGIKAVDSLVPIGRGQRELIIGDRQTGKTSIAIDTIINQKRFNDGSDEKKKLYCIYVAIGQKRSTVAQLVKRLTDADAMKYTIVVSATASDAAPLQYLAPYSGCSMGEYFRDNGKHALIIYDDLSKQAVAYRQMSLLLRRPPGREAYPGDVFYLHSRLLERAAKMNDAFGGGSLTALPVIETQAGDVSAYIPTNVISITDGQIFLETELFYKGIRPAINVGLSVSRVGSAAQTRAMKQVAGTMKLELAQYREVAAFAQFGSDLDAATQQLLSRGVRLTELLKQGQYSPMAIEEQVAVIYAGVRGYLDKLEPSKITKFENAFLSHVVSQHQALLGTIRADGKISEQSDAKLKEIVTNFLAGFEA
B7: RRP1 (protein, UniProt P56182 1-461, looked up)
Ribosomal RNA processing …: MVSRVQLPPEIQLAQRLAGNEQVTRDRAVRKLRKYIVARTQRAAGGFTHDELLKVWKGLFYCMWMQDKPLLQEELGRTISQLVHAFQTTEAQHLFLQAFWQTMNREWTGIDRLRLDKFYMLMRMVLNESLKVLKMQGWEERQIEELLELLMTEILHPSSQAPNGVKSHFIEIFLEELTKVGAEELTADQNLKFIDPFCRIAARTKDSLVLNNITRGIFETIVEQAPLAIEDLLNELDTQDEEVASDSDESSEGGERGDALSQKRSEKPPAGSICRAEPEAGEEQAGDDRDSGGPVLQFDYEAVANRLFEMASRQSTPSQNRKRLYKVIRKLQDLAGGIFPEDEIPEKACRRLLEGRRQKKTKKQKRLLRLQQERGKGEKEPPSPGMERKRSRRRGVGADPEARAEAGEQPGTAERALLRDQPRGRGQRGARQRRRTPRPLTSARAKAANVQEPEKKKKRRE
B8: SNRNP40 (protein)
chain: MIEQQKRKGPELPLVPVKRQRHELLLGAGSGPGAGQQQATPGALLQAGPPRCSSLQAPIMLLSGHEGEVYCCKFHPNGSTLASAGFDRLILLWNVYGDCDNYATLKGHSGAVMELHYNTDGSMLFSASTDKTVAVWDSETGERVKRLKGHTSFVNSCYPARRGPQLVCTGSDDGTVKLWDIRKKAAIQTFQNTYQVLAVTFNDTSDQIISGGIDNDIKVWDLRQNKLTYTMRGHADSVTGLSLSSEGSYLLSNAMDNTVRVWDVRPFAPKERCVKIFQGNVHNFEKNLLRCSWSPDGSKIAAGSADRFVYVWDTTSRRILYKLPGHAGSINEVAFHPDEPIIISASSDKRLYMGEIQ
B9: CFAP20 (protein, UniProt Q9Y6A4 1-193, looked up)
Cilia- and …: MFKNTFQSGFLSILYSIGSKPLQIWDKKVRNGHIKRITDNDIQSLVLEIEGTNVSTTYITCPADPKKTLGIKLPFLVMIIKNLKKYFTFEVQVLDDKNVRRRFRASNYQSTTRVKPFICTMPMRLDDGWNQIQFNLLDFTRRAYGTNYIETLRVQIHANCRIRRVYFSDRLYSEDELPAEFKLYLPVQNKAKQ

In one series the test system is BAF complex subunits and histone proteins. The series can be described thus: Mass spectrometry proteomics of purified HA-SS18 WT and HA-SS18-SSX1 complexes (Tables 5A-5E). More on the design: species or system human. Conditions: HA-SS18SSX1_CHR_peptides; total peptides of the identified protein.
As to B1, the Total is recorded as 4.

Take B2: the Total is given as 4.

The molecule B3 yielded a Total of 3.

B4 gave a Total of 3.

In turn, B5 gave a Total of 4.

For B6, the Total was 3.

For B7, the Total amounted to 3.

B8 had a Total of 4.

With B9, the Total worked out at 4.

The series is the same for the next values; noted with them: HA-SS18SSX1_CHR_peptides; unique peptides of the identified protein.
Molecule B1 came in with a Unique of 3.

B2 displayed a Unique of 3.

In turn, B3 yielded a Unique of 3.

Turning to B4, the Unique is given as 3.

With B5, the Unique is 3.

In turn, B6 showed a Unique of 3.

For B7, the Unique was 3.

Take B8: the Unique came to 3.

The molecule B9 registered a Unique of 3.

Staying with this series, now noted: HA-SS18SSX1_NE_peptides: protein co-purified with HA-SS18-SSX1 BAF complexes from soluble nuclear extract (NE), HEK-293T cells.
B2: the “Total (peptides)” value is given as 3 and the “Unique (peptides)” value is reported as 2.

In the case of B3, the “Total (peptides)” value is 1 and the “Unique (peptides)” value was 1.

As to B5, the “Total (peptides)” value worked out at 2 and the “Unique (peptides)” value came out at 2.

Still in this series, the particulars now being: HA-SS18SSX1 purification, NE (soluble nuclear extract) fraction, HEK-293T; peptides per identified protein.
For the molecule B6, the “Total (total peptides)” value is recorded as 39 and the “Unique (unique peptides)” value is reported as 24.

Staying with this series, now noted: HA-SS18WT_CHR_peptides: HA-SS18 WT purification from nuclease-treated solubilized chromatin (CHR), HEK-293T; label = protein identified.
Take B2: the “Total (peptides)” value is given as 4 and the “Unique (peptides)” value is 3.

On to B3, for which the “Total (peptides)” value turned out to be 5 and the “Unique (peptides)” value is 5.

B6: the “Total (peptides)” value was determined as 3 and the “Unique (peptides)” value is on record as 3.

As for B7, the “Total (peptides)” value was 3 and the “Unique (peptides)” value is on record as 3.

The same series, now with this note: HA-SS18WT_CHR_peptides: protein identified in HA-SS18 WT BAF complex purification from nuclease-treated solubilized chromatin (CHR), HEK-293T.
Regarding B1, the “Total (total peptides)” value was 2 and the “Unique (unique peptides)” value worked out at 2.

As to B4, the “Total (total peptides)” value worked out at 2 and the “Unique (unique peptides)” value is 2.

Take B5: the “Total (total peptides)” value is 2 and the “Unique (unique peptides)” value was found to be 2.

For the molecule B9, the “Total (total peptides)” value was determined as 1 and the “Unique (unique peptides)” value worked out at 1.

Staying with this series, now noted: HA-SS18WT_NE_peptides: HA-SS18 WT complexes purified from nuclear extract (NE), HEK-293T; label = protein identified (Gene Symbol).
For the molecule B5, the “Total (peptides)” value is recorded as 2 and the “Unique (peptides)” value is given as 2.

With B6, the “Total (peptides)” value stood at 42 and the “Unique (peptides)” value is 26.

The same series, now with this note: HA-SS18WT_NE_peptides: proteins co-purified with HA-SS18 WT from nuclear extract (NE), HEK-293T.
B4: the “Total (peptides)” value came out at 1 and the “Unique (peptides)” value was found to be 1.
